Results taken from PubChem BioAssay (EPA / NIEHS).
Inconclusive means that the source gave no clear call. Such entries were picked first, then a sample of the others. Where the call is inconclusive, the potency comes from a doubtful curve fit. The source made the active and inactive calls. How the source made its calls: active means hit-call score of the fitted dose curve at least 0.9, where 1 is the maximum; inconclusive means response in the unintended direction; inactive means score below 0.9.

Sequences of proteins named here, by UniProt entry; tags and fusion partners are left off. A change or cut given only in a name is not applied to a line headed by its entry.
UniProt Q9Y233: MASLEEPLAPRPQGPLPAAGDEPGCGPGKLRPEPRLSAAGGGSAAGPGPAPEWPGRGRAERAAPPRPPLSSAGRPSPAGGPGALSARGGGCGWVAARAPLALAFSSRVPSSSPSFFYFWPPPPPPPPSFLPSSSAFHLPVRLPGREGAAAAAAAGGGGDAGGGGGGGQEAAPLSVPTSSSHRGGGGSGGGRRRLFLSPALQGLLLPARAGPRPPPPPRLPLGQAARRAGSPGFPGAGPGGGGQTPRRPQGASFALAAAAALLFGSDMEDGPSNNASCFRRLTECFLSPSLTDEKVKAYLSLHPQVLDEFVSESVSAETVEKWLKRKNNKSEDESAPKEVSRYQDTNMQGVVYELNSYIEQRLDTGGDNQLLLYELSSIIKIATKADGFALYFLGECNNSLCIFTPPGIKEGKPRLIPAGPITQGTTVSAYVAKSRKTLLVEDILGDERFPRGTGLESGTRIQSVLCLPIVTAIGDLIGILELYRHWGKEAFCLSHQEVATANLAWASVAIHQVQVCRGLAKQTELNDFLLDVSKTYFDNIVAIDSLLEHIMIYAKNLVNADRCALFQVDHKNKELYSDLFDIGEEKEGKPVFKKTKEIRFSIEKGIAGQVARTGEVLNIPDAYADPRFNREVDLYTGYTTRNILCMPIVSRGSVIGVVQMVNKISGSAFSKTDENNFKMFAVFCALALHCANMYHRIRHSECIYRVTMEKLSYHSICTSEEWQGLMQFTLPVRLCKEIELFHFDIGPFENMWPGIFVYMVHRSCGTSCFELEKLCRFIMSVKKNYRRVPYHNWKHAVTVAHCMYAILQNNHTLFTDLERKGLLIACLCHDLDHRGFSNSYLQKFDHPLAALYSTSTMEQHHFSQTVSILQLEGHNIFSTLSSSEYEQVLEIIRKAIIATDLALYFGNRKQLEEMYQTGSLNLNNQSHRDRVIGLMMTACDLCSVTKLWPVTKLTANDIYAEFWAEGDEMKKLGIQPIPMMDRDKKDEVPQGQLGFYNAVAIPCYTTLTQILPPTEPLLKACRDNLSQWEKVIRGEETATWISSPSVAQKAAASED

Target: human Phosphodiesterase 10 (PDE10), PDE10A (gene 10846) (UniProt Q9Y233)
Experiment: NVS_ENZ_hPDE10: NovaScreen (NVS) Enzymatic Assay for human Phosphodiesterase 10 (PDE10) (AID 2283195)
Outline: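 Fluorescence/mobility-shift readout of PDE10A enzyme activity, taken 1 h post-dosing. Primary screen in duplicate at 25 uM; actives (e.g. ≥30% inhibition) retested as singleton concentration-response, top concentration 50 uM.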

Row | SMILES | AC50 | outcome
1 | CCCCCCS | inconclusive: 44.7 µM | 
2 | CCC(C)C=O (configuration not stated) | active: 16.2 µM | 
3 | S=P(N1CC1)(N1CC1)N1CC1 |  | inactive
4 | Nc1cc([N+](=O)[O-])cc(Cl)c1O |  | inactive
5 | CC=CC(=O)OCC(C)C | inconclusive: 25 µM | 
6 | CC(C)CC(=O)O |  | inactive
7 | Clc1ccc2c(Cl)ccnc2c1 | inconclusive: 0.63 µM | 
8 | CCCCCCCCCCCCCCCC[N+](C)(C)Cc1ccccc1 | inconclusive: 25 µM | 
9 | CCCC(C)CCC(C)=O (configuration not stated) | inconclusive: 25 µM | 
10 | CN(C)C(=O)NC1(c2ccccc2)CCN(CCC[C@]2(c3ccc(Cl)c(Cl)c3)CCCN(C(=O)c3ccccc3)C2)CC1 | inconclusive: 0.255 µM | 
11 | NC(=O)NNC(N)=O |  | inactive
12 | Oc1ccc2c(c1)CCC2 | inconclusive: 0.107 µM | 
13 | [Cl][Eu]([Cl])[Cl] | inconclusive: 0.112 µM | 
14 | C=C(C)CCO | active: 38.2 µM | 
15 | COc1cccc([C@H](O)C2CCN(CCc3ccc(F)cc3)CC2)c1OC | inconclusive: 25 µM | 
16 | CC(=O)S[C@@H]1CC2=CC(=O)CC[C@]2(C)[C@H]2CC[C@@]3(C)[C@@H](CC[C@@]34CCC(=O)O4)[C@H]12 | active: 14.4 µM | 
17 | CCC(=O)O | inconclusive: 25 µM | 
18 | CC1=CCC2C(=O)OC(=O)C2C1 (configuration not stated) | inconclusive: 43.9 µM | 
19 | c1ccc2c(c1)CCC2 | inconclusive: 0.136 µM | 
20 | N#C[C@@H]1CC(F)(F)CN1C(=O)CNC1CC2CCC(C1)N2c1ncccn1 (some centres not stated) | inconclusive: 25 µM | 
21 | O=Nc1ccc(O)cc1 |  | inactive
22 | CCC(C)C(=O)OC (configuration not stated) | inconclusive: 0.0242 µM | 

Retrieved by compound from above:
Row | SMILES | AC50 | outcome
17 | CCC(=O)O | inconclusive: 25 µM | 
19 | c1ccc2c(c1)CCC2 | inconclusive: 0.136 µM | 
